This note sets out measurements from doi:10.1101/2024.03.08.584044.

By UniProt entry, the sequences of proteins in these tests, tags left out.
UniProt O60645: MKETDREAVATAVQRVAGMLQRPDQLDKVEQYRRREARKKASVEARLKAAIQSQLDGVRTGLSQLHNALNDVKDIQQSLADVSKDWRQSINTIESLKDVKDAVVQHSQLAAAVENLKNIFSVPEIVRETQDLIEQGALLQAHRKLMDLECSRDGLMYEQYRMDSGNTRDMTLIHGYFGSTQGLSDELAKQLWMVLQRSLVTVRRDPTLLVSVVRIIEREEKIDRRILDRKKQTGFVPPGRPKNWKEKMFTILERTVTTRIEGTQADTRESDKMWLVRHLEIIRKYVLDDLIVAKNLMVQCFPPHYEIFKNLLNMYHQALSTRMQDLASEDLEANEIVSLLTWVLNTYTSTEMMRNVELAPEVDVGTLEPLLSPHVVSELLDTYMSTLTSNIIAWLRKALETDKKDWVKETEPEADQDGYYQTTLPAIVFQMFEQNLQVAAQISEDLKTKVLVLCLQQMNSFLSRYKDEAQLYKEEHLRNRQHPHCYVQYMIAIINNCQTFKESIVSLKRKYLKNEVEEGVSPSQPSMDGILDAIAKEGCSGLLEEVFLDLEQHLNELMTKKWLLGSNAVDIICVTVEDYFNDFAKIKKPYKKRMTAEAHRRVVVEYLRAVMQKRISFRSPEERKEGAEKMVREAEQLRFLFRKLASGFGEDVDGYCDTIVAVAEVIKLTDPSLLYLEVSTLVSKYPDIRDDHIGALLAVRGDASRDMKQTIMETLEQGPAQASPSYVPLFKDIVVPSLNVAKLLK
UniProt Q0V8C2: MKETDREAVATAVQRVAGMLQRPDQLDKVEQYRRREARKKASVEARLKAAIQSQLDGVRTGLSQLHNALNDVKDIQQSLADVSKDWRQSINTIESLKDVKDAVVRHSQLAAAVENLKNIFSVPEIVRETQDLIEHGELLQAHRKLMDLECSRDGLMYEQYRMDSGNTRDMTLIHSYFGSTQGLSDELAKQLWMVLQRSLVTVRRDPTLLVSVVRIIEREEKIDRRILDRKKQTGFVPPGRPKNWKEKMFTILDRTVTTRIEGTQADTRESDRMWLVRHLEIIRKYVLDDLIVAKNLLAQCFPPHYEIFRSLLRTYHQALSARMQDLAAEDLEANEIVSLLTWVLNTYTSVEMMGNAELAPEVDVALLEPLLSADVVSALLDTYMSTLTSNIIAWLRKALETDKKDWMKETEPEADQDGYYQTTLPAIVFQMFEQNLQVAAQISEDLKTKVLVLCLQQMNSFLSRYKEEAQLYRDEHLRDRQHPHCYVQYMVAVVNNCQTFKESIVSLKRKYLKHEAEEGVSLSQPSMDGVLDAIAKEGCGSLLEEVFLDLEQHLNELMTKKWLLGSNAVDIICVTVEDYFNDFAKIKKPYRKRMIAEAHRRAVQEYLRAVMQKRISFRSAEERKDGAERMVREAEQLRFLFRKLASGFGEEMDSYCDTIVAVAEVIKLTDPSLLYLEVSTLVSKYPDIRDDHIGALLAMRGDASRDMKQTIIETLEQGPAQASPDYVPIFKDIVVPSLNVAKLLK

Assay in all cases: co-IP
One experiment deals with Sec6-Flag (UniProt O60645).
Experiment [1] addresses T1, Rab11a (endogenous, MDBK cells) (bovine (endogenous in MDBK)) (UniProt Q2TA29).
T1 sequence: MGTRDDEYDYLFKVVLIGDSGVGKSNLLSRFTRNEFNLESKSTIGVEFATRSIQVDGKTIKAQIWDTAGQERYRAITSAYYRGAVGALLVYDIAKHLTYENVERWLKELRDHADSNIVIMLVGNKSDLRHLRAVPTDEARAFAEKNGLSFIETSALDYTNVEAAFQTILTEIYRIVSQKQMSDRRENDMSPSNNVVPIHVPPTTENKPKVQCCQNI

The next experiment deals with T2, SNAP23-HA (UniProt O00161).
T2 sequence: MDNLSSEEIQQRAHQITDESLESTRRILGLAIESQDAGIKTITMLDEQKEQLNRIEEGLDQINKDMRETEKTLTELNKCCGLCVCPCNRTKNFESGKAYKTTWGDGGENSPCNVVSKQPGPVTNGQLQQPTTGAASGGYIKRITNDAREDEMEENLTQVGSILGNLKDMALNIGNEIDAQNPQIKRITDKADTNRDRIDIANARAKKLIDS

These are yes or no findings as the source states them, for the method shown. Binding seen in cells or lysates may run through a third protein. Some binding calls cover weakened binding; strength is not graded here. For part of these data: Sequences can lack the tags named with a protein.

Take Rab11a-GFP (from UniProt P62491 1-216): the binding result with Sec6-Flag was “binds”.

On to “Sec6 (endogenous, MDBK cells) (from UniProt Q0V8C2 1-745)”, for which the binding entry in experiment [1] was “binds”.

B1: Snapin-GFP (protein, UniProt O95295 1-136)
chain: MAGAGSAAVSGAGTPVAGPTGRDLFAEGLLEFLRPAVQQLDSHVHAVRESQVELREQIDNLATELCRINEDQKVALDLDPYVKKLLNARRRVVLVNNILQNAQERLRRLNHSVAKETARRRAMLDSGIYPPGSPGK
As to B1, the binding result with SNAP23-HA is on record as “binds”.
